From PubChem BioAssay AID248 (DTP/NCI, 2004)
The list does not hold the whole screen: it gathers tests that were run many times, whatever their T/C, doses with no T/C, and many T/C values between a quarter and a half above the control. Further doses and runs are listed elsewhere. T/C: endpoint of the treated group in % of that of the vehicle group. Some entries give survivors of the animals treated and no T/C: the source files T/C as zero there, which appears to mark a toxic dose or a test without result, not a measured value. Some survivor counts are full or nearly so, which does not show that the dose was tolerated: survival well below the control is almost never listed, so the zero probably covers shortened survival too. Survivors were counted at the toxicity check, usually on the fifth day, unless a day is given; later deaths do not show. Schedule codes are those of the source, taken here to give the interval after Q, in days (D) or hours (H), and the number of doses after X. Some doses were run more than once; the results are listed from low to high. Where survival is the endpoint, the PubChem record calls one and a half times the control and up active, and a quarter to a half above the control has no call in these data; cut-offs in other NCI protocols can differ. Some T/C values carry the count of animals alive at the toxicity check (mostly the fifth day); without a count, all were alive then.

Test system: L1210 leukemia ip in BDF1 mice, survival T/C
Test: NCI In Vivo Anticancer Drug Screen. Data for tumor model L1210 Leukemia (intraperitoneal) in B6D2F1 (BDF1) mice
Conditions: T/C endpoint: mean survival time, higher T/C = longer survival
[1] = dose: 100.0 mg/kg/injection, schedule: Q04DX002 (ip), vehicle: saline
[2] = dose: 200.0 mg/kg/injection, schedule: Q04DX002 (ip), vehicle: saline
[3] = dose: 400.0 mg/kg/injection, schedule: Q04DX002 (ip), vehicle: saline
[4] = dose: 400.0 mg/kg/injection, schedule: Q04DX003 (ip), vehicle: Klucel (hydroxypropylcellulose) (HPC)
[5] = dose: 200.0 mg/kg/injection, schedule: Q01DX009 (ip), vehicle: Klucel (hydroxypropylcellulose) (HPC)
[6] = dose: 200.0 mg/kg/injection, schedule: Q04DX003 (ip), vehicle: saline with Tween-80
[7] = dose: 400.0 mg/kg/injection, schedule: Q04DX003 (ip), vehicle: saline with Tween-80
[8] = dose: 200.0 mg/kg/injection, schedule: Q01DX009 (ip), vehicle: saline
[9] = dose: 400.0 mg/kg/injection, schedule: Q04DX002 (ip), vehicle: Klucel (hydroxypropylcellulose) (HPC)
[10] = dose: 400.0 mg/kg/injection, schedule: Q04DX003 (ip), vehicle: saline
[11] = dose: 75.0 mg/kg/injection, schedule: Q01DX001 (ip), vehicle: saline
[12] = dose: 150.0 mg/kg/injection, schedule: Q01DX001 (ip), vehicle: saline
[13] = dose: 300.0 mg/kg/injection, schedule: Q01DX001 (ip), vehicle: saline

**Q.** What does the source list for `CCC1CCCCN1` (centres undefined)?
**A.** T/C (dose: 20.0 mg/kg/injection, schedule: Q04DX002 (ip), vehicle: saline): 128 % of control; survivor count [1]: 0 of 3 and 0 of 6; survivor count [2]: 0 of 3 and 0 of 6; survivor count [3]: 0 of 3 and 0 of 6

**Q.** Which survivor count [4] does the source give for `O=C1NC(=O)/C(=C/c2ccco2)N1` here?
**A.** Its survivor count is 6 of 6.

**Q.** Which results are given for `CC(Cc1ccccc1)NC(C#N)c1ccccc1` (centres undefined)?
**A.** survivor count (dose: 100.0 mg/kg/injection, schedule: Q04DX003 (ip), vehicle: saline with Tween-80): 3 of 6; survivor count [5]: 1 of 6; survivor count [6]: 5 of 6; survivor count [4]: 0 of 4; survivor count [7]: 1 of 6

**Q.** Which results are given for `CCN(CC)CCCCN(C)c1ccccc1`?
**A.** survivor count (dose: 100.0 mg/kg/injection, schedule: Q04DX003 (ip), vehicle: acetone): 2 of 6; survivor count (dose: 200.0 mg/kg/injection, schedule: Q04DX003 (ip), vehicle: acetone): 0 of 6; survivor count (dose: 400.0 mg/kg/injection, schedule: Q04DX003 (ip), vehicle: acetone): 0 of 6

**Q.** What does the source list for `CC(NC(=O)C(N)CSC(c1ccccc1)(c1ccccc1)c1ccccc1)C(=O)O` (centres undefined)?
**A.** T/C (dose: 25.0 mg/kg/injection, schedule: Q01DX009 (ip), vehicle: saline): 127 % of control; T/C (dose: 50.0 mg/kg/injection, schedule: Q01DX009 (ip), vehicle: other): 127 % of control; T/C (dose: 50.0 mg/kg/injection, schedule: Q01DX009 (ip), vehicle: saline): 125 % of control; T/C (dose: 100.0 mg/kg/injection, schedule: Q01DX009 (ip), vehicle: other): 142 % of control; T/C (dose: 100.0 mg/kg/injection, schedule: Q01DX009 (ip), vehicle: saline): 138 % of control; survivor count [8]: 3 of 6; survivor count (dose: 400.0 mg/kg/injection, schedule: Q01DX009 (ip), vehicle: other): 0 of 6; survivor count (dose: 400.0 mg/kg/injection, schedule: Q01DX009 (ip), vehicle: saline): 4 of 6

**Q.** For `O=[N+]([O-])c1ccc(/C=N/O)o1`, which T/C (dose: 100.0 mg/kg/injection, schedule: Q01DX001 (ip), vehicle: saline) is on record?
**A.** The T/C was 133 % of control [4 of 6 alive].

**Q.** And the survivor count (dose: 100.0 mg/kg/injection, schedule: Q04DX002 (ip), vehicle: Klucel (hydroxypropylcellulose) (HPC))?
**A.** The survivor count was 0 of 3.

**Q.** What about the survivor count (dose: 200.0 mg/kg/injection, schedule: Q01DX001 (ip), vehicle: saline) of the same compound?
**A.** Its survivor count is 2 of 6.

**Q.** And the survivor count (dose: 200.0 mg/kg/injection, schedule: Q04DX002 (ip), vehicle: Klucel (hydroxypropylcellulose) (HPC))?
**A.** Its survivor count is 1 of 3.

**Q.** And the survivor count [9]?
**A.** Its survivor count is 0 of 3.

**Q.** With `C1=CN2CC(c3ccccc3)=NNC2c2ccccc21` (centres undefined) as the compound, how does the survivor count (dose: 200.0 mg/kg/injection, schedule: Q04DX003 (ip), vehicle: alcohol) read?
**A.** The survivor count was 2 of 6.

**Q.** And the survivor count (dose: 400.0 mg/kg/injection, schedule: Q04DX003 (ip), vehicle: alcohol)?
**A.** Its survivor count is 0 of 6.

**Q.** What about the survivor count [10] of the same compound?
**A.** The survivor count was 3 of 6.

**Q.** Which survivor count [5] does the source give for `CC=C1C(C(=O)O)C1C(=O)O` (centres undefined) here?
**A.** The survivor count was 1 of 6.

**Q.** What about the survivor count (dose: 400.0 mg/kg/injection, schedule: Q01DX009 (ip), vehicle: Klucel (hydroxypropylcellulose) (HPC)) of the same compound?
**A.** Its survivor count is 1 of 6.

**Q.** How did the survivor count (dose: 100.0 mg/kg/injection, schedule: Q04DX003 (ip), vehicle: saline) turn out when `CCN(CC)CC(=O)NCC(CCCCN1CCCCC1)(c1cccc2ccccc12)C(C)C` (centres undefined) was run?
**A.** The survivor count was 5 of 6.

**Q.** And the survivor count (dose: 200.0 mg/kg/injection, schedule: Q04DX003 (ip), vehicle: saline)?
**A.** Its survivor count is 0 of 6.

**Q.** And the survivor count [10]?
**A.** Its survivor count is 0 of 6.

**Q.** Which results are given for `Cc1cc2ccccc2c(N=Cc2cc(Br)cc(Br)c2O)c1C#N`?
**A.** survivor count (dose: 100.0 mg/kg/injection, schedule: Q01DX003 (ip), vehicle: saline with Tween-80): 3 of 3; survivor count (dose: 400.0 mg/kg/injection, schedule: Q01DX003 (ip), vehicle: saline with Tween-80): 3 of 3

**Q.** For `O=C1NC(C2CCC3CN32)C(=O)NC1C1CCC2CN21` (centres undefined), which T/C (dose: 0.8 mg/kg/injection, schedule: Q01DX009 (ip), vehicle: saline) is on record?
**A.** The T/C was 126 % of control.

**Q.** And the T/C (dose: 1.1 mg/kg/injection, schedule: Q01DX009 (ip), vehicle: saline)?
**A.** The T/C was 136 % of control.

**Q.** What about the T/C (dose: 1.8 mg/kg/injection, schedule: Q01DX009 (ip), vehicle: saline) of the same compound?
**A.** The T/C was 134 and 149 % of control.

**Q.** And the T/C (dose: 4.0 mg/kg/injection, schedule: Q01DX001 (ip), vehicle: Klucel (hydroxypropylcellulose) (HPC))?
**A.** Its T/C is 130 % of control.

**Q.** And the T/C (dose: 7.0 mg/kg/injection, schedule: Q01DX001 (ip), vehicle: Klucel (hydroxypropylcellulose) (HPC))?
**A.** The T/C was 136 % of control.

**Q.** What about the T/C (dose: 8.0 mg/kg/injection, schedule: Q01DX001 (ip), vehicle: Klucel (hydroxypropylcellulose) (HPC)) of the same compound?
**A.** The T/C was 142 % of control.

**Q.** And the T/C (dose: 10.5 mg/kg/injection, schedule: Q01DX001 (ip), vehicle: Klucel (hydroxypropylcellulose) (HPC))?
**A.** The T/C was 144 % of control.

**Q.** And the survivor count (dose: 20.0 mg/kg/injection, schedule: Q01DX009 (ip), vehicle: saline)?
**A.** Its survivor count is 6 of 6.

**Q.** What about the survivor count (dose: 40.0 mg/kg/injection, schedule: Q01DX009 (ip), vehicle: saline) of the same compound?
**A.** The survivor count was 5 of 6.

**Q.** For `CNC(=O)Nc1ccccc1[N+](=O)[O-]`, which survivor count [9] is on record?
**A.** Its survivor count is 0 of 3.

**Q.** With `OCCCN1CCC2(CC1)SSC1(CCN(CCCO)CC1)S2` as the compound, how does the survivor count [8] read?
**A.** The survivor count was 5 of 6.

**Q.** And the survivor count [10]?
**A.** The survivor count was 0 of 6.

**Q.** `O=C(Cl)c1ccc(OC(Cl)(Cl)Cl)cc1` was tested. Which survivor count (dose: 100.0 mg/kg/injection, schedule: Q01DX009 (ip), vehicle: Klucel (hydroxypropylcellulose) (HPC)) did it give?
**A.** Its survivor count is 6 of 6.

**Q.** `O=C(O)c1ccccc1C(=O)Nc1cccc2ccccc12` was tested. Which survivor count [9] did it give?
**A.** Its survivor count is 3 of 3.

**Q.** `COc1ccc(C(c2ccc(Cl)cc2)N2CCNCC2)cc1` (centres undefined) was tested. Which survivor count [6] did it give?
**A.** Its survivor count is 3 of 6.

**Q.** What about the survivor count [7] of the same compound?
**A.** The survivor count was 3 of 6.

**Q.** For `O=C(O)CC[S-].[Ag+]`, which survivor count (dose: 400.0 mg/kg/injection, schedule: Q01DX001 (ip), vehicle: other) is on record?
**A.** The survivor count was 6 of 6.

**Q.** Which survivor count (dose: 62.5 mg/kg/injection, schedule: Q04DX003 (ip), vehicle: saline) does the source give for `CN=C(N)N/N=C/c1ccccc1` here?
**A.** Its survivor count is 0 of 6.

**Q.** And the survivor count (dose: 125.0 mg/kg/injection, schedule: Q04DX003 (ip), vehicle: saline)?
**A.** The survivor count was 0 of 6.

**Q.** And the survivor count (dose: 250.0 mg/kg/injection, schedule: Q04DX003 (ip), vehicle: saline)?
**A.** Its survivor count is 0 of 6.

**Q.** For `CCOP(N)(=O)SC` (centres undefined), which survivor count (dose: 10.0 mg/kg/injection, schedule: Q01DX001 (ip), vehicle: saline) is on record?
**A.** Its survivor count is 0 of 6.

**Q.** And the survivor count (dose: 20.0 mg/kg/injection, schedule: Q01DX001 (ip), vehicle: saline)?
**A.** The survivor count was 0 of 6.

**Q.** What about the survivor count (dose: 40.0 mg/kg/injection, schedule: Q01DX001 (ip), vehicle: saline) of the same compound?
**A.** The survivor count was 0 of 6.

**Q.** What about the survivor count [11] of the same compound?
**A.** Its survivor count is 0 of 6.

**Q.** What about the survivor count (dose: 80.0 mg/kg/injection, schedule: Q01DX001 (ip), vehicle: saline) of the same compound?
**A.** Its survivor count is 0 of 6.

**Q.** What about the survivor count [12] of the same compound?
**A.** Its survivor count is 0 of 6.

**Q.** What about the survivor count [13] of the same compound?
**A.** The survivor count was 0 of 6.

**Q.** `CN(C)c1ncnc2c1cnn2C` was tested. Which survivor count (dose: 400.0 mg/kg/injection, schedule: Q01DX001 (ip), vehicle: carboxymethylcellulose (CMC)) did it give?
**A.** Its survivor count is 2 of 6.

**Q.** `CCCCCNCCOC(=O)c1ccc(N)cc1` was tested. Which survivor count [11] did it give?
**A.** The survivor count was 0 of 6.

**Q.** What about the survivor count [12] of the same compound?
**A.** Its survivor count is 0 of 6.

**Q.** And the survivor count [13]?
**A.** The survivor count was 0 of 6.

**Q.** Which survivor count [1] does the source give for `CCCCCCCCCCCCCCCCNCC(O)CN` (centres undefined) here?
**A.** The survivor count was 0 of 3.

**Q.** What about the survivor count [2] of the same compound?
**A.** The survivor count was 0 of 3.

**Q.** What about the survivor count [3] of the same compound?
**A.** Its survivor count is 0 of 3.

**Q.** `O=[As](O)(O)c1ccc(N=NSc2ncnc3nc[nH]c23)cc1` was tested. Which T/C (dose: 30.0 mg/kg/injection, schedule: Q01DX015 (ip), vehicle: carboxymethylcellulose (CMC)) did it give?
**A.** The T/C was 125 % of control [4 of 6 alive].

**Q.** What about the survivor count (dose: 60.0 mg/kg/injection, schedule: Q01DX015 (ip), vehicle: carboxymethylcellulose (CMC)) of the same compound?
**A.** Its survivor count is 1 of 6.

**Q.** Which survivor count (dose: 200.0 mg/kg/injection, schedule: Q01DX009 (ip), vehicle: saline with Tween-80) does the source give for `C=CCOC(=O)CCCCC(=O)OCC=C` here?
**A.** Its survivor count is 0 of 6.

**Q.** What about the survivor count (dose: 400.0 mg/kg/injection, schedule: Q01DX009 (ip), vehicle: saline with Tween-80) of the same compound?
**A.** The survivor count was 0 of 6.
